Literature values as cited in patent publication US20140248347A1, “PHARMACEUTICAL COMPOSITIONS OF N-METHYL-2-[3-((E)-2-PYRIDIN-2-YL-VINYL)-1H-INDAZOL-6-YLSULFANYL]-BENZAMIDE” (PFIZER INC., priority 2011, published 2014).

Tests used:
[1] = test system: vascular endothelial growth factor (VEGF) receptors 1, 2 and 3; settings: background statement; cited from earlier work
endothelial cell = settings: background statement; cited from earlier work

CNC(=O)c1ccccc1Sc1ccc2c(/C=C/c3ccccn3)n[nH]c2c1 [axitinib, N-methyl-2-[3-((E)-2-pyridin-2-yl-vinyl)-1H-indazol-6-ylsulfanyl]-benzamide]
inhibition of VEGF receptors 1, 2 and 3 [1]: potent and selective inhibitor | inhibition of VEGF-mediated endothelial cell proliferation and survival (endothelial cell): potently inhibit
